Laboratory results from PubChem BioAssay AID720576 (National Center for Advancing Translational Sciences (NCATS), 2013).
The shares of active, inactive and inconclusive entries below differ from those in the screen. Potencies beside an inconclusive call are fits to weak or partial responses and may not hold up. The source made the active and inactive calls. The call rests on the fitted dose curve; in most records, active means well fitted inhibition curve with a large enough effect; inconclusive means small, poorly fitted or top-dose-only effect; inactive means no such curve, though single readings can be large or run the other way.

Test: qHTS Assay for Inhibitors of Hepatitis C Virus (HCV): Cytotoxicity Counterscreen for Cherry-picked Compounds
Conditions: HCV host cell line cytotoxicity counterscreen; activity change, negative = cytotoxicity: at 41.8 µM (top of the series)
Description: Hepatitis C virus (HCV) infects about 200 million people in the world. Many infected people progress to chronic liver disease including cirrhosis with a risk of developing liver cancer. To date, there is no effective vaccine for hepatitis C. Current therapy based on interferon is only effective in about half of the patients and is associated with significant adverse effects. The fraction of people with HCV who can complete a successful treatment is estimated to be no more than 10 percent. Recent development of direct-acting antivirals against HCV, such as protease and polymerase inhibitors, is promising but still requires combination with peginterferon and ribavirin for maximal efficacy. In addition, these agents are associated with high rate of resistance and many have significant side effects. Due to the lack of a culture system for infectious HCV, the search for new HCV drugs has been greatly hampered. […] High-throughput screening (HTS) with an infectious HCV system would cover the complete spectrum of potentially druggable targets in all stages of HCV lifecycle, and would have more biological relevance than other cell-based assays. Moreover, targeting several key processes in the viral life cycle may not only increase antiviral efficacy; more importantly, it may also reduce the capacity of the virus to develop resistance to the compound.
The goal of this project is to identify novel HCV inhibitors as new therapies for hepatitis C, using a highly sensitive and specific assay platform based on a HCV infectious cell culture system established in the laboratory and adapted for high-throughput HCV drug screen. The primary assay was used to screen the MLPCN compound library and potential inhibitors were cherry picked for confirmation and further characterization. To evaluate the cytotoxic effect of the selected compounds, a secondary cell based counterscreen using the Promega CellTiter Glo reagent and Huh cell line was developed. The data herein is the result of the Cytotoxicity counterscreen against the cherry picked compounds. No significant activity is the desired outcome for this assay.
NIH Chemical Genomics Center [NCGC]
NIH Molecular Libraries Probe Centers Network [MLPCN]
Assay Submitter (PI): Jake Liang, NIDDK
Cells were plated in a 1536-wel tissue culture grade plates at a final concentration of 1,000 cells/well (3 uL volume). The assay plate was culture for 4 h. Then 23 nL of compounds from the library collection was added to each well and incubated for 44 h at 37C, 5% CO2. A volume of 4.5 uL CellTiterGlo reagent was to each well and the plates were incubated at room temperature for 15 min. The luminescence signal was read for 15 sec using the PerkinElmer ViewLux plate reader.
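Further: 44 h compound exposure; nearly all actives have a fitted effect of over 55% in size.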
On the % scale 0 is the no-effect control and ±100 the full control effect.

**Q.** For `CCCc1ccc(C2C3=C(CC(C)(C)CC3=O)NC3=C2C(=O)c2ccccc23)cc1` (stereo not given), which Potency is on record?
**A.** inconclusive: 44.5 µM [inhibitor, single point]

**Q.** For `CCN1/C(=C\C(=S)Nc2ccccc2)Sc2ccccc21`, which Potency is on record?
**A.** inconclusive: 14.1 µM [inhibitor, partial curve, poor fit]

**Q.** With `NC(N)=NC(N)=NCCc1ccccc1` as the molecule, how does the Potency read?
**A.** inconclusive: 14.1 µM [inhibitor, partial curve, poor fit]

**Q.** With `Cn1cc(CNCc2ccc(OC(F)(F)F)cc2)c(-c2ccc3c(c2)OCCO3)n1` as the molecule, how does the Potency read?
**A.** active: 4.99 µM

**Q.** Which Potency does the source give for `CC(Oc1ccc(Cl)cc1Cl)c1nc(-c2ccc(NC(=O)c3ccncc3)cc2)no1` (stereo not given) here?
**A.** active: 11.2 µM

**Q.** Which Potency does the source give for `COc1ccc(S(=O)(=O)n2ccc(-c3ccc(OCCN(C)c4ccccn4)cc3)n2)cc1` here?
**A.** inconclusive: 22.3 µM [inhibitor, partial curve, poor fit]

**Q.** With `CCn1nc(C)c(CNC(=O)c2ccc(OC3CCN(Cc4ccccn4)CC3)cc2)c1C` as the molecule, how does the Potency read?
**A.** active: 1.12 µM

**Q.** For `COc1cc(OC)cc(-c2c(-c3ccc(F)cc3)c3cc(-c4ccc5[nH]ccc5c4)ccc3n2C)c1`, which Potency is on record?
**A.** inconclusive: 25 µM [inhibitor, partial curve, poor fit]

**Q.** For `CCC(=O)NC(c1cccs1)c1cc(Cl)c2cccnc2c1O` (stereo not given), which Potency is on record?
**A.** active: 11.2 µM

**Q.** Which Potency does the source give for `Cc1ccnc(NC(=O)CCCOc2cc(=O)n(C)c3ccccc23)c1` here?
**A.** inconclusive: 44.5 µM [inhibitor, partial curve, poor fit]

**Q.** For `COc1ccc(/C=C/C(=O)Nc2cccc(S(=O)(=O)NC3=NCCCCC3)c2)cc1OC`, which Potency is on record?
**A.** inconclusive: 28 µM [inhibitor, single point]

**Q.** Which Potency does the source give for `Cc1cc(N2CCN(Cc3nc(-c4ccc(Cl)cc4)oc3C)CC2)cc(C)n1` here?
**A.** inconclusive: 14.1 µM [inhibitor, partial curve, poor fit]

**Q.** Which Potency does the source give for `COc1ccccc1NC(=O)C(C)OC(=O)c1cc2ccccc2[nH]1` (stereo not given) here?
**A.** active: 17.7 µM

**Q.** With `Oc1c(N=Nc2ccccn2)ccc2ccccc12` as the molecule, how does the Potency read?
**A.** inconclusive: 12.5 µM [inhibitor, partial curve, poor fit]

**Q.** Which Potency does the source give for `CC1(c2ccc3ccccc3c2)NC(=O)N(CC(=O)N2CCN(Cc3ccccc3)CC2)C1=O` (stereo not given) here?
**A.** active: 3.15 µM

**Q.** Which Potency does the source give for `C/C(=N\NC(=S)Nc1cc(S(=O)(=O)N2CCOCC2)ccc1Cl)c1ccccc1F` here?
**A.** inconclusive: 17.7 µM [inhibitor, partial curve, poor fit]

**Q.** For `O=C(NCCN1CCC(Cc2ccccc2)CC1)C1CCN(S(=O)(=O)N2CCC3(CC2)OCCO3)CC1`, which “activity change, negative = cytotoxicity” value is on record?
**A.** inactive: -18.2%

**Q.** With `COc1cccc(C(=O)Nc2ccc3c(c2)CCCN3C(=O)c2cccs2)c1OC` as the molecule, how does the Potency read?
**A.** inconclusive: 31.5 µM [inhibitor, single point]

**Q.** For `COc1ccc(N/N=C(/N=Nc2nc(C)cc(=O)[nH]2)c2ccccc2)cc1`, which Potency is on record?
**A.** active: 11.2 µM

**Q.** With `Cc1cc(C(=O)N/N=C/c2ccc(O)c(O)c2O)c(C)n1-c1ccccc1` as the molecule, how does the Potency read?
**A.** inconclusive: 56 µM [inhibitor, single point]

**Q.** Which “activity change, negative = cytotoxicity” value does the source give for `Cc1cc(NCc2ccccn2)n2nc(C)c(-c3ccc(Cl)cc3)c2n1` here?
**A.** inactive: -27.8%

**Q.** With `Fc1ccc(C(c2nnnn2Cc2cccs2)N2CCN(C3CCCC3)CC2)cc1` (stereo not given) as the molecule, how does the “activity change, negative = cytotoxicity” value read?
**A.** inactive: -17.1%

**Q.** For `S=C(NCc1ccccc1)Nc1cccc2cnccc12`, which Potency is on record?
**A.** active: 9.95 µM

**Q.** With `COc1ccc(N2CCN(CCCNC(=O)C3CCC(CNc4nc(=S)[nH]c5ccccc45)CC3)CC2)cc1` (stereo not given) as the molecule, how does the Potency read?
**A.** active: 22.3 µM

**Q.** With `O=C(/C=C/c1ccccc1)Nc1cccc(C(=O)NCCCCc2ccccc2)c1` as the molecule, how does the “activity change, negative = cytotoxicity” value read?
**A.** inactive: 7.6%

**Q.** With `CC(C)(c1cc(Cl)c(O)c(CN2CCOCC2)c1)c1cc(Cl)c(O)c(CN2CCOCC2)c1` as the molecule, how does the “activity change, negative = cytotoxicity” value read?
**A.** inactive: 45%

**Q.** Which Potency does the source give for `CS(=O)c1nc(-c2ccc(Br)cc2)cc(-c2ccccc2)c1C#N` (stereo not given) here?
**A.** inconclusive: 31.5 µM [inhibitor, single point]

**Q.** For `CCOC(=O)CC(=O)CSc1nc2sc(C)cc2c(=O)n1Cc1ccco1`, which “activity change, negative = cytotoxicity” value is on record?
**A.** inactive: 25%

**Q.** For `C/C(CC1CC2=C(CC1(C)C)C(C)(C)CCC2)=N\NC(N)=S` (stereo not given), which Potency is on record?
**A.** inconclusive: 35.3 µM [inhibitor, single point]

**Q.** With `COC(=O)c1cc2c(C)cc3ccc(C)cn3c-2c1C(=O)OC` as the molecule, how does the “activity change, negative = cytotoxicity” value read?
**A.** inactive: 43.3%

**Q.** Which Potency does the source give for `CCc1ccccc1NC(=S)/N=C(\N)Nc1nc(C)c2cc(C)ccc2n1` here?
**A.** inconclusive: 31.5 µM [inhibitor, partial curve, poor fit]

**Q.** For `CCN1CCN(c2cc(C)c3cc(NC(=O)c4cc(OC)cc(OC)c4)ccc3n2)CC1`, which Potency is on record?
**A.** active: 22.3 µM

**Q.** With `O=[N+]([O-])c1ccc(/C=[N+](\[O-])[C@@H]2CCCC[C@@H]2/[N+]([O-])=C/c2ccc([N+](=O)[O-])o2)o1` as the molecule, how does the Potency read?
**A.** inconclusive: 31.5 µM [inhibitor, single point]

**Q.** Which Potency does the source give for `CC(C)Cc1ccc(C(C)C(=O)Nc2ccccc2O)cc1` (stereo not given) here?
**A.** active: 9.95 µM

**Q.** For `CCN1C(=O)/C(=C\c2cccs2)C(C(=O)OC)=C1C`, which Potency is on record?
**A.** inconclusive: 31.5 µM [inhibitor, single point]

**Q.** With `CC(=NNC(=S)N1CCN(C2CCCCCC2)CC1)c1ccccn1` as the molecule, how does the Potency read?
**A.** inconclusive: 0.0499 µM [inhibitor, full curve]

**Q.** With `Cc1ccc(-c2csc(Cc3nc(-c4cc5ccccc5oc4=O)cs3)n2)cc1` as the molecule, how does the Potency read?
**A.** active: 6.28 µM

**Q.** For `Cc1ccc2c(c1)[C@H]1[C@H](CO2)[C@H](c2ccccc2)[C@]2(C)C(=O)N(Cc3ccc(F)cc3)CC(=O)N12`, which “activity change, negative = cytotoxicity” value is on record?
**A.** inactive: 23.7%

**Q.** Which Potency does the source give for `Clc1ccc2nc(-c3ccc(Br)s3)cn2c1` here?
**A.** inconclusive: 2.5 µM [inhibitor, single point]

**Q.** For `O=C(Nc1ccc([N+](=O)[O-])cc1)Nc1ccc(OC(F)F)c(Cl)c1`, which Potency is on record?
**A.** active: 8.87 µM
